Source: PubChem BioAssay AID1259424 (University of Nebraska Medical Center, 2018)
Purpose: 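Find knockdowns that reproduce the expression shifts seen after KSR1 loss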 (primary screen). Cells: human HCT116 colon cancer cells. Knock-down reagent: siRNA pool against human genes, 50 nM. Measurement: 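Six signature mRNAs by branched-DNA multiplex assay, scaled to two housekeeping genes and non-targeting median, log2; matched to mean KSR1 knockdown profile by Pearson correlation and euclidean distance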. Direction: mean correlation with KSR1 profile and KSR1 correlation: higher = expression change more like KSR1 knockdown; mean distance from KSR1 profile: higher = expression change less like KSR1 knockdown.
This is an unselected part of about 14,000 reagents tested. 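Higher correlation or smaller distance means closer resemblance to KSR1 loss; control wells, including KSR1 knockdowns, recur on many plates.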 Not given: the time to read-out.

Gene | PubChem SID | mean correlation with KSR1 profile | mean distance from KSR1 profile | KSR1 correlation, replicate 1 | KSR1 correlation, replicate 2 | KSR1 correlation, replicate 3
CRBN | SID364000019 | -0.218 | 1.83 | 0.0336 | -0.0944 | -0.221
KRIT1 | SID363995859 | 0.0832 | 1.64 | -0.0559 | -0.0634 | 0.00746
CATSPERG | SID364002072 | -0.183 | 3.34 | -0.175 | -0.0513 | -0.244
BIRC8 | SID364004360 | -0.224 | 3.7 | -0.246 | -0.258 | -0.257
ZNF341 | SID364004199 | 0.575 | 2.2 | 0.568 | 0.404 | 0.357
PNMA6A | SID364004252 | 0.243 | 4.89 | 0.295 | 0.185 | 0.0416
TTBK1 | SID364005308 | 0.513 | 1.57 | 0.683 | 0.417 | -0.169
TMOD3 | SID363998924 | 0.164 | 4.13 | -0.187 | -0.0782 | 0.134
CHD6 | SID364003835 | 0.81 | 1.21 | 0.351 | 0.784 | 0.851
DNAH9 | SID363992645 | -0.449 | 3.04 | -0.308 | -0.546 | -0.418
BLMH | SID363991717 | -0.221 | 1.47 | -0.348 | -0.415 | 0.0388
H4C14 | SID363994631 | -0.315 | 2.66 | -0.355 | -0.554 | -0.0656
ENO1 | SID363992692 | -0.0504 | 1.12 | 0.345 | -0.485 | 0.0814
CHRDL2 | SID363999484 | 0.0429 | 1.28 | 0.356 | -0.241 | -0.167
APLP2 | SID363992867 | 0.178 | 2.95 | 0.123 | 0.172 | 0.0505
KRT23 | SID363999543 | 0.133 | 1.37 | 0.394 | -0.172 | 0.142
FDX1 | SID363995119 | -0.0654 | 1.49 | -0.0327 | -0.28 | 0.0591
TAL1 | SID363994325 | 0.159 | 1.52 | -0.0985 | 0.0895 | 0.18
ZNF184 | SID363997853 | -0.365 | 1.34 | -0.0326 | -0.504 | -0.271
HYAL3 | SID363994632 | -0.464 | 1.43 | -0.0458 | -0.255 | -0.471
AHDC1 | SID364005492 | 0.158 | 1.47 | -0.34 | 0.178 | 0.0829
TMEM267 | SID364002468 | -0.616 | 1.84 | -0.858 | -0.318 | -0.55
ANGPT1 | SID363992438 | -0.411 | 3.37 | -0.504 | -0.285 | -0.587
RBP3 | SID363994055 | 0.106 | 2.79 | 0.0331 | 0.135 | 0.0784
TFAP2B | SID363994350 | 0.246 | 1.27 | 0.205 | 0.721 | 0.13
MACROH2A1 | SID363995842 | 0.339 | 1.21 | 0.381 | 0.309 | 0.306
HDHD3 | SID364003557 | 0.654 | 1.26 | 0.0694 | 0.564 | 0.746
CCL14 | SID363995170 | -0.0936 | 1.37 | 0.113 | -0.19 | -0.172
RHNO1 | SID364003647 | 0.839 | 1.06 | 0.75 | 0.797 | 0.73
CBS | SID363991408 | -0.95 | 3.43 | -0.829 | -0.898 | -0.322
CLEC16A | SID364005343 | -0.404 | 1.2 | -0.558 | -0.483 | -0.115
EIF3M | SID363997176 | 0.669 | 3.31 | 0.669 | 0.875 | 0.278
ANXA5 | SID363992446 | 0.405 | 1.52 | 0.685 | 0.435 | 0.207
PXMP4 | SID363997932 | 0.309 | 2.12 | 0.483 | 0.346 | 0.142
RBP1 | SID363994054 | -0.557 | 1.65 | -0.344 | -0.731 | -0.357
SERHL2 | SID363998916 | -0.153 | 1.95 | -0.301 | -0.281 | -0.183
JRK | SID363994792 | -0.762 | 1.78 | -0.728 | -0.706 | -0.724
LSM6 | SID363997809 | -0.403 | 2.12 | -0.0985 | -0.374 | -0.581
ALCAM | SID363992852 | -0.5 | 2.65 | -0.471 | -0.515 | -0.541
ZBTB10 | SID364002654 | -0.391 | 2.79 | -0.254 | -0.426 | -0.299
SNAPC4 | SID363994230 | -0.132 | 1.31 | -0.0608 | 0.0096 | -0.156
RPA2 | SID363994097 | -0.649 | 1.18 | -0.502 | -0.82 | -0.254
DLX2 | SID363995388 | 0.734 | 1.51 | 0.766 | 0.784 | 0.597
SNTB1 | SID364001960 | 0.465 | 2.96 | 0.422 | 0.394 | 0.582
CCDC70 | SID364003579 | 0.37 | 2.79 | 0.364 | 0.299 | 0.269
PHPT1 | SID363998629 | -0.337 | 3.14 | -0.37 | -0.288 | -0.41
NEK9 | SID364004325 | 0.664 | 1.67 | 0.812 | 0.336 | 0.545
NAB1 | SID363996826 | -0.654 | 3.78 | -0.521 | -0.636 | -0.618
IMPG2 | SID363999979 | 0.0829 | 1.37 | 0.0335 | -0.0333 | -0.179
OCM2 | SID363997014 | 0.212 | 2.57 | 0.573 | 0.505 | -0.0956
MAPT | SID363996779 | -0.00217 | 2.85 | 0.102 | -0.249 | 0.0248
YPEL5 | SID363999835 | -0.776 | 4.26 | -0.754 | -0.639 | -0.695
BRDT | SID363992947 | -0.0284 | 2.46 | -0.0736 | -0.082 | -0.285
ELANE | SID363993184 | -0.261 | 1.47 | -0.162 | 0.586 | -0.335
WNT11 | SID363995594 | -0.171 | 1.63 | -0.0156 | -0.11 | -0.46
GTF3C3 | SID363998035 | 0.196 | 2.03 | 0.116 | -0.206 | 0.32
SLC5A5 | SID363991784 | -0.423 | 3.52 | -0.521 | -0.652 | -0.173
PIAS4 | SID363999701 | -0.013 | 2.11 | 0.154 | 0.588 | -0.477
LRIG1 | SID363999561 | -0.11 | 1.23 | -0.331 | -0.248 | 0.0153
ABHD1 | SID364004092 | 0.791 | 0.794 | 0.891 | 0.851 | 0.446
TNFRSF4 | SID363994443 | 0.444 | 1.74 | 0.514 | 0.317 | 0.436
DPEP2 | SID364002411 | 0.204 | 2.38 | 0.193 | 0.504 | 0.298
PKMYT1 | SID363995204 | 0.685 | 1.47 | 0.405 | 0.92 | 0.691

An excerpt from above, reduced to “KSR1 correlation, replicate 1”:
SERHL2 [SID363998916] = -0.301
JRK [SID363994792] = -0.728
LSM6 [SID363997809] = -0.0985
ALCAM [SID363992852] = -0.471
ZBTB10 [SID364002654] = -0.254
SNAPC4 [SID363994230] = -0.0608
RPA2 [SID363994097] = -0.502
DLX2 [SID363995388] = 0.766
SNTB1 [SID364001960] = 0.422
CCDC70 [SID364003579] = 0.364
